Experimental data: publication doi:10.1101/2021.12.29.474442
Positions count from the first letter of the chain named. Names may count otherwise. Results are given in words; binding and its absence hold for the method and conditions named. For some of these results: In cells and extracts the contact can be indirect. Some results given as binding are weak or reduced against the parent protein; the word gives no strength. For some of these results: Where a sequence is shown, tags or fusion partners need not be part of it.

By UniProt entry, the sequences of proteins in these tests, tags left out. Where a name states a change or a piece, a line headed by the entry shows the natural chain unless it says otherwise. Residues count along the entry.
UniProt O43303, 635-717: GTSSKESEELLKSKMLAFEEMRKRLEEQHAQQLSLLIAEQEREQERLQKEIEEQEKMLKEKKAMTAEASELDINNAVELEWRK

How the values were obtained:
[1] = molecular target: T1, BioGFP-CPAP 89-196 (human) (UniProt Q9HC77); assay: pull-down
T1 sequence (chain, biotin on the Bio tag (BirA co-expressed)): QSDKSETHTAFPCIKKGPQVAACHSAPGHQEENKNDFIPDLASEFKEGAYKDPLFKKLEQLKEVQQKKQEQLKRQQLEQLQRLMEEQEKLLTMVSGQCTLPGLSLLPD

[2] = molecular target: CP110-CC2 R656A/L659A (human) (UniProt O43303); assay: SEC
[3] = molecular target: CPAP-CC1 (residues 89-196) (human) (UniProt Q9HC77); assay: SEC
[4] = molecular target: CPAP-CC1 (residues 89-196) (human) (UniProt Q9HC77); assay: SEC-MALS
[5] = molecular target: CPAP-CC1 L149A/K150A (human) (UniProt Q9HC77); assay: SEC-MALS
[6] = molecular target: CP110-CC2 (residues 635-717) (human) (UniProt O43303); assay: SEC-MALS

GFP-CP110 581-991 (prey) (from UniProt O43303-2 581-991) (domain or fragment)
binding [1]: binds

CP110-CC2 R656A/L659A (from UniProt O43303-2 635-717) (domain or fragment)
binding [2]: no binding

B1: CPAP-CC1 (residues 89-196) (domain or fragment, UniProt Q9HC77 89-196)
chain: T1 sequence (chain, biotin on the Bio tag (BirA co-expressed))
binding [3]: no binding
binding [2]: no binding
binding [4]: no binding (tested: ∼ 7 mg/ml loaded)

B2: CPAP-CC1 L149A/K150A (domain or fragment, UniProt Q9HC77 89-196)
chain: T1 sequence (chain, biotin on the Bio tag (BirA co-expressed)) with L61A, K62A
binding [5]: no binding (tested: ∼ 7 mg/ml loaded)
binding [6]: no binding (tested: ∼ 7 mg/ml loaded)
